Laboratory results as given in article PMC11532494 (Nature Communications, 2024).
These are yes or no findings as the source states them, for the method shown.

Key:
[1] = target: T1, Legionella cherrii acetyl-polyamine aminohydrolase (Legionella cherrii); experiment: SEC; both purified
T1 sequence: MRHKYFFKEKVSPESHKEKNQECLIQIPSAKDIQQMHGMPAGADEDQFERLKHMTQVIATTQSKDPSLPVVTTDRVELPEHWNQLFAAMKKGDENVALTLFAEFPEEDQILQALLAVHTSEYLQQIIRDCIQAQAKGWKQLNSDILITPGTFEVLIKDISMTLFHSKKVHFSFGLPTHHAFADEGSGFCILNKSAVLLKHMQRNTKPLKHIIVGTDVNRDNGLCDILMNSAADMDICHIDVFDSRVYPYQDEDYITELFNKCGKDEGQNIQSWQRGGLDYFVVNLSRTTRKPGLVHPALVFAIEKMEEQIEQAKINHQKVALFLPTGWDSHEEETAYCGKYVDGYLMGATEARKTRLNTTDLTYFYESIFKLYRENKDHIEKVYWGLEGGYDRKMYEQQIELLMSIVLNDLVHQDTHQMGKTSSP

[2] = target: T2, Legionella pneumophila acetyl-polyamine aminohydrolase (Legionella pneumophila); experiment: SEC; both purified
T2 sequence: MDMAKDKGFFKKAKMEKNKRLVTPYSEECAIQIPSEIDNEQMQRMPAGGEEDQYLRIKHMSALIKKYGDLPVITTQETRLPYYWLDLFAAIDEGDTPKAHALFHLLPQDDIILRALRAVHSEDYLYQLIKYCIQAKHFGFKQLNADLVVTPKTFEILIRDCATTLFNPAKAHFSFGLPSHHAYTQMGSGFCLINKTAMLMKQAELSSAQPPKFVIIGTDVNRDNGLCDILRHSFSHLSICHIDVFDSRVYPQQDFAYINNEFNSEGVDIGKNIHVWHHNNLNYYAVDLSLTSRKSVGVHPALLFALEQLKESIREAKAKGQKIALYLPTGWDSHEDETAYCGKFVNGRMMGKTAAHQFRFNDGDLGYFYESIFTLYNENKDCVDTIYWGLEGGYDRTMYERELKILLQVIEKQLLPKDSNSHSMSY

B1: Legionella cherrii acetyl-polyamine aminohydrolase (enzyme, UniProt A0A0W0SGS1 1-425)
chain: MRHKYFFKEKVSPESHKEKNQECLIQIPSAKDIQQMHGMPAGADEDQFERLKHMTQVIATTQSKDPSLPVVTTDRVELPEHWNQLFAAMKKGDENVALTLFAEFPEEDQILQALLAVHTSEYLQQIIRDCIQAQAKGWKQLNSDILITPGTFEVLIKDISMTLFHSKKVHFSFGLPTHHAFADEGSGFCILNKSAVLLKHMQRNTKPLKHIIVGTDVNRDNGLCDILMNSAADMDICHIDVFDSRVYPYQDEDYITELFNKCGKDEGQNIQSWQRGGLDYFVVNLSRTTRKPGLVHPALVFAIEKMEEQIEQAKINHQKVALFLPTGWDSHEEETAYCGKYVDGYLMGATEARKTRLNTTDLTYFYESIFKLYRENKDHIEKVYWGLEGGYDRKMYEQQIELLMSIVLNDLVHQDTHQMGKTSSP
binding [1]: no binding (tested: 5 mg/ml)

B2: Legionella pneumophila acetyl-polyamine aminohydrolase (enzyme, UniProt A0A2S6EWV0 1-426)
chain: MDMAKDKGFFKKAKMEKNKRLVTPYSEECAIQIPSEIDNEQMQRMPAGGEEDQYLRIKHMSALIKKYGDLPVITTQETRLPYYWLDLFAAIDEGDTPKAHALFHLLPQDDIILRALRAVHSEDYLYQLIKYCIQAKHFGFKQLNADLVVTPKTFEILIRDCATTLFNPAKAHFSFGLPSHHAYTQMGSGFCLINKTAMLMKQAELSSAQPPKFVIIGTDVNRDNGLCDILRHSFSHLSICHIDVFDSRVYPQQDFAYINNEFNSEGVDIGKNIHVWHHNNLNYYAVDLSLTSRKSVGVHPALLFALEQLKESIREAKAKGQKIALYLPTGWDSHEDETAYCGKFVNGRMMGKTAAHQFRFNDGDLGYFYESIFTLYNENKDCVDTIYWGLEGGYDRTMYERELKILLQVIEKQLLPKDSNSHSMSY
binding [2]: no binding (tested: 5 mg/ml)
